Source: PubChem BioAssay AID2685 (National Center for Advancing Translational Sciences (NCATS), 2010)
Where “and” joins values, the source holds several entries; their conditions need not be identical. Equal values may be shown once. The list shows a part of the results. Further columns of the screen follow, without active or inactive calls. Most of these compounds were active or inconclusive in the main read-out, so they are no random draw. Potencies come from curve fits of mixed quality, noted in brackets.

Assay: qHTS Assay for Lipid Storage Modulators in Drosophila S3 Cells;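 for cell number change: cells counted by Cell Tracker Red CMTPX staining in the red channel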
Details: BODIPY lipid droplet fluorescence, 18-24 h; for cell number change: measured here: cell count max response, cells fed with added oleic acid
Summary of the method: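 Drosophila S3 cells got compounds at several concentrations plus oleic acid (400 uM solution). Laser-scanning cytometry with 488 nm excitation read lipid droplets at 500-530 nm and cells at 575-640 nm. Percent activity was relative to 20 uM Triacsin C.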

[1] = measured here: cell number channel AC50, cells fed with added oleic acid
[2] = measured here: lipid fluorescence (Fed channel) AC50, cells fed with added oleic acid

COc1ccccc1/C=C1\SC(=S)N(CC(=O)Nc2nnc(C)s2)C1=O
cell number change: -34.6% | AC50 [1]: 29.1 µM [falling, single point]

O=C(CSCC(=O)N1CCCCC1)Nc1nc(-c2ccc(Cl)s2)cs1
cell number change: 2.27% | AC50 [1]: 0.731 µM [falling, single point] | AC50 [2]: 0.731 µM [falling, single point]

CCN(CC)c1nc(N)c2c(N)n(-c3ccccc3C)c(=S)c(C#N)c2c1C#N
cell number change: 34.7% | AC50 [1]: 0.0092 µM [rising, full curve, poor fit]

CC(C)Oc1ccc(CNC(=S)N/N=C/c2ccc([N+](=O)[O-])cc2)cc1
cell number change: -16.3% | AC50 [2]: 6.51 µM [falling, partial curve, poor fit]

Cn1c(=O)n(C/C=C/c2ccccc2)c(=O)c2c1nc1n2CCCN1Cc1ccccc1
cell number change: -16.5%

COc1ccc(CCNC(=O)CN(CCc2ccccc2)S(C)(=O)=O)cc1
cell number change: -38.1% | AC50 [1]: 16.4 µM [falling, partial curve, poor fit] | AC50 [2]: 6.51 µM [falling, single point]

COc1ccc(C2CC(c3ccccc3)=NN2S(=O)(=O)c2ccc(C)cc2)c(OC)c1 (configuration not stated)
AC50 [2]: 6.51 µM [rising, single point]

O=[N+]([O-])c1ccc(-c2nc(=S)c3c(o2)CCCC3)cc1
cell number change: -12.5% | AC50 [2]: 0.00517 µM [falling, full curve, poor fit]

CC(=O)NS(=O)(=O)c1ccc(NC(=O)C(Sc2ccccc2)c2ccccc2)cc1 (configuration not stated)
AC50 [2]: 0.82 µM [rising, single point]

CC(C)(C)c1cc(CCC(=O)N2CCC2)cc(C(C)(C)C)c1O
cell number change: -1.08%

CCC(C)(C)NC(=O)C(c1cccc(OC)c1OC)N(Cc1ccc(OC)cc1)C(=O)CCC(=O)Nc1cc(C)on1 (configuration not stated)
cell number change: -17.9% | AC50 [2]: 6.51 µM [falling, single point]

Cc1ccc(S(=O)(=O)NC(=O)NCCCN2CCOCC2)cc1
cell number change: 27.3%

CCOC(=O)C1CCN(C(=O)CN(c2ccc3c(c2)OCCO3)S(=O)(=O)c2ccccc2)CC1
cell number change: 72.7% | AC50 [1]: 9.2 µM [rising, partial curve]

COc1cccc(C2=NOC(C(=O)NCCN3CCOCC3)C2)c1 (configuration not stated)
cell number change: -7.13% | AC50 [1]: 3.66 µM [rising, single point]

Cc1ccc(S(=O)(=O)NC(=O)Nc2ccc(C)cc2C)cc1
cell number change: -5.95% | AC50 [2]: 29.1 µM [falling, single point]

COc1ccc(OC)c(NC(=O)c2cccc(NC(=O)c3ccccc3)c2)c1
cell number change: -26.4% | AC50 [2]: 16.4 µM [falling, single point]

O=C(Nc1c(-c2ccccc2)nc2c(Br)cc(Br)cn12)c1ccco1
cell number change: 69.3% | AC50 [1]: 5.8 µM [rising, partial curve, poor fit] | AC50 [2]: 5.17 µM [falling, single point]

C=CCNC(=O)C1CCN(c2ccc(S(=O)(=O)N3CCOCC3)cc2[N+](=O)[O-])CC1
cell number change: -46.1% | AC50 [1]: 6.51 µM [falling, single point] | AC50 [2]: 6.51 µM [falling, single point]

Nc1c(-c2ccccc2)cnc2c(-c3ccccc3)cnn12
cell number change: 1.65% | AC50 [2]: 20.6 µM [rising, single point]

COc1ccc(CNC(=O)C2CCC(CNC(=O)[C@@H]3Cc4ccccc4CN3)CC2)cc1 (some centres not stated)
cell number change: 36.3% | AC50 [1]: 0.082 µM [rising, full curve] | AC50 [2]: 29.1 µM [rising, single point]

COc1ccc(C(=O)NC(=S)Nc2ccc3c4c(cccc24)CC3)cc1OC
cell number change: -59.1% | AC50 [1]: 32.6 µM [falling, single point] | AC50 [2]: 32.6 µM [falling, single point]

COC(=O)c1ccc(COn2nnc3ccccc32)cc1
AC50 [2]: 0.58 µM [falling, single point]

O=C(NCC(=O)N(Cc1cccs1)C(C(=O)NC1CCCC1)c1cccnc1)c1ccco1 (configuration not stated)
cell number change: -34% | AC50 [1]: 0.164 µM [falling, full curve, poor fit]

Cc1ccc(CNC(=O)C2CCN(S(=O)(=O)c3c(C)noc3/C=C/N(C)C)CC2)cc1
cell number change: -7.55% | AC50 [2]: 0.00517 µM [rising, full curve, poor fit]

CN(C(=O)c1ccc(NC(=O)Cc2ccc(NC(=O)C3CCCN(C(=O)c4ccccc4)C3)cc2)cc1)C1CC1 (configuration not stated)
cell number change: -21.8%

O=C(CCc1c[nH]c2ccccc12)Nc1ncccc1O
cell number change: 23.4% | AC50 [2]: 16.4 µM [rising, partial curve, poor fit]

CC(=O)n1nc(-c2ccncc2)nc1SCC(=O)Nc1cccc(Cl)c1
cell number change: -11.1% | AC50 [2]: 0.58 µM [falling, single point]

CC(=O)N1CC(C)Sc2ccc(S(=O)(=O)NCc3ccc(F)cc3)cc21 (configuration not stated)
AC50 [2]: 0.146 µM [rising, full curve, poor fit]

COc1ccc(CSc2ccc(-c3nc4ccccn4c3NCc3ccccc3)cc2OC)cc1
cell number change: -28.6%

Cc1cc2oc(C(=O)Nc3ccc(S(=O)(=O)Nc4ncccn4)cc3)c(C)c2cc1Cl
AC50 [2]: 6.51 µM [rising, single point]

COc1cccc(-n2c(-c3ccco3)nc3nc4ccccc4nc32)c1
cell number change: 39.5% | AC50 [1]: 20.6 µM [rising, single point] | AC50 [2]: 14.6 µM [rising, single point]

CCCOc1ccc(-c2nn(-c3ccccc3)cc2/C=C2\SC(N)=NC2=O)cc1
cell number change: -0.583% | AC50 [2]: 29.1 µM [rising, single point]

CCN(CC)S(=O)(=O)c1ccc2c(c1)N(CC(=O)N1CCN(c3ccc(F)cc3)CC1)C(=O)CO2
cell number change: 14.6% | AC50 [2]: 29.1 µM [rising, single point]

CCCN(CCC)C(=O)Cn1c(=O)c2ccccc2n2c(=S)sc(-c3ccccc3C)c12
cell number change: -50.8% | AC50 [1]: 3.26 µM [falling, full curve, poor fit] | AC50 [2]: 6.51 µM [rising, partial curve]

COC(=O)C1(c2ccccc2)NC(c2ccc(O)cc2)C2C(=O)N(c3ccc4c(c3)OCO4)C(=O)C21 (configuration not stated)
cell number change: -6.12% | AC50 [2]: 0.058 µM [falling, full curve, poor fit]

OCCN1CCN(c2ncnc3nc[nH]c23)CC1
cell number change: -21.3% | AC50 [2]: 23.1 µM [falling, partial curve]

N#CC1=C(N)Oc2ccc3ccc(O)cc3c2C1c1cccnc1 (configuration not stated)
cell number change: 1.52% | AC50 [2]: 13 µM [rising, partial curve]

CCCc1cc(NCCCn2ccnc2)n2nc(C)c(-c3ccccc3)c2n1
cell number change: -30% | AC50 [2]: 29.1 µM [falling, single point]

COc1cc2cc(CN(Cc3cccs3)C(=S)Nc3ccc(C)cc3)c(=O)[nH]c2cc1OC
cell number change: 15.4% | AC50 [1]: 2.91 µM [rising, partial curve] | AC50 [2]: 0.092 µM [rising, full curve, poor fit]

COc1cccc(NC(=S)Nc2cccc3ccccc23)c1
cell number change: -41%

O=C(COc1ccc(NC(=O)c2cccs2)cc1)c1ccc(F)cc1
cell number change: 6.31% | AC50 [2]: 13 µM [falling, partial curve]

CNc1ccc(Br)cc(C(=O)/C=C/c2ccc(Cl)cc2Cl)c1=O
cell number change: -59.1% | AC50 [1]: 5.17 µM [falling, full curve] | AC50 [2]: 8.2 µM [falling, partial curve]

COc1ccc(N2C(=O)CSC2c2ccc3c(c2)OCO3)cc1 (configuration not stated)
cell number change: 18.9% | AC50 [1]: 2.59 µM [rising, single point]

CC(C)C(=O)Nc1nnc(COc2ccc(Cl)cc2)s1
cell number change: 32.1% | AC50 [1]: 23.1 µM [rising, single point]

COc1cccc(NC(=O)CSc2nc(=O)n(CCN(C)C)c3c2CCCC3)c1
cell number change: -25% | AC50 [1]: 0.00461 µM [falling, full curve]

CCCOc1ccc(NC(=O)CC2C(=O)N(C)C(=S)N2Cc2ccc3c(c2)OCO3)cc1 (configuration not stated)
cell number change: -7.12% | AC50 [2]: 2.59 µM [rising, partial curve]

COC(=O)C1=C(C)N(Cc2ccccc2)C(=NCCc2cccnc2)N[C@H]1c1ccccc1
cell number change: 29.1% and 1.16% | AC50 [2]: 16.4 µM [falling, single point]

O=C(Nc1cccnc1Cl)C1CCCN(c2ncnc3c2nc2n3CCCCC2)C1 (configuration not stated)
cell number change: -33.9% | AC50 [2]: 29.1 µM [falling, single point]

CCOC(=O)c1cc(-c2ccccc2)n(CC(=O)Nc2cc(OC)cc(OC)c2)c1C
cell number change: 18.4% | AC50 [2]: 29.1 µM [rising, single point]

Cc1cccc(NC(=O)c2ccc(S(=O)(=O)NCc3cccnc3)cc2)c1
cell number change: 6.41% | AC50 [2]: 5.17 µM [rising, single point]

CCC(Oc1ccc(C)cc1)C(=O)Nc1ccc(S(=O)(=O)Nc2cc(C)on2)cc1 (configuration not stated)
cell number change: 10.4% | AC50 [2]: 0.58 µM [rising, single point]

COc1cc(-c2ccc(Nc3ccccc3C(=O)O)c(OC)c2)ccc1Nc1ccccc1C(=O)O
cell number change: -35.6% | AC50 [1]: 23.1 µM [falling, single point] | AC50 [2]: 0.146 µM [rising, full curve, poor fit]

CCN1/C(=C2/SC(=S)N(NC(C)=O)C2=O)Sc2ccccc21
cell number change: 33.1% | AC50 [1]: 14.6 µM [rising, single point]

O=Nc1c(-c2ccccc2)[nH]n(-c2ccccc2)c1=O
cell number change: -41.2% | AC50 [1]: 29.1 µM [falling, partial curve, poor fit] | AC50 [2]: 0.58 µM [falling, full curve]

Cc1ccsc1/C=N/n1c(-c2ccco2)n[nH]c1=S
cell number change: -33.5% | AC50 [1]: 0.82 µM [falling, full curve] | AC50 [2]: 4.61 µM [falling, partial curve, poor fit]
